In PubChem BioAssay AID2685 (National Center for Advancing Translational Sciences (NCATS), 2010):
This is one part of the list. Further columns of the screen follow, without active or inactive calls. Compounds called inactive in the main read-out are mostly missing here. The note in brackets gives the kind of curve behind each potency; many fits are weak. *1 amine or outer side, *2 acyl side, *3 side chain or, on linkers, in order; H or OH if unused. Where a SMILES comes first, the peptide text is derived from it. Bridges are numbered along the chain shown (N, C = ends). [ ]: non-standard residue; d: D form. ξ: configuration not given here. hSer(Ph(2-I,4-NO2,6-CO)) = O=C([C@H](CCOc1c(I)cc([N+](=O)[O-])cc1C(=O)[*:3])N[*:1])[*:2]; ξD = NC(CC(=O)O)C(=O)O

Experiment: qHTS Assay for Lipid Storage Modulators in Drosophila S3 Cells;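 on cell number change: cells counted by Cell Tracker Red CMTPX staining in the red channel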
Details: BODIPY lipid droplet fluorescence, 18-24 h; for cell number change: measured here: cell count max response, cells fed with added oleic acid
How it was run: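 Laser-scanning cytometry quantifies lipid droplet accumulation (500–530 nm total intensity; droplet/cell object ratio) in oleic acid-fed (400 uM added) Drosophila S3 cells treated with a concentration series. 20 uM Triacsin C defined 100% inhibition.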

[1] = measured here: cell number channel AC50, cells fed with added oleic acid
[2] = measured here: lipid fluorescence (Fed channel) AC50, cells fed with added oleic acid

Structure (SMILES)	cell number change [%]	AC50 [1]	AC50 [2]
CC(C)CNC1=C(C(=S)Nc2ccccc2)C(=O)CC(C)(C)C1	35.5	6.51 µM [rising, partial curve]	6.51 µM [rising, partial curve]
CCc1ccccc1NC(=O)NC1CC2CCC(C1)N2Cc1cccs1 (stereo unspecified)	-14.6		
O=C(c1cc2cc(Cl)ccc2oc1=O)N1CCOCC1	2.97		
CCOC(=O)c1ccc(S(=O)(=O)NNS(=O)(=O)c2ccc(C)cc2)cc1	22		
CC(C)NC(=O)C(c1ccc(F)cc1)N(C(=O)CCC(=O)Nc1ccccn1)C1CCCC1 (stereo unspecified)	7.98		0.206 µM [falling, single point]
O=C(Nc1ccc(C(=O)O)cc1)/C(=C\c1ccc2c(c1)OCO2)NC(=O)c1ccc(Br)o1	18.9		0.116 µM [rising, full curve]
COc1ccc(OC)c(NC(=O)COC(=O)CN2C(=O)NC3(CCCC3)C2=O)c1	5.1		3.26 µM [rising, partial curve, poor fit]
Fc1ccc(CSc2nnc(CN3CCOCC3)n2-c2ccccc2)c(Cl)c1	-6.41		6.51 µM [rising, single point]
O=C(O)Cn1cc(/C=N/NC(=O)c2cc3cc(Br)ccc3o2)c2ccccc21	14.8		16.4 µM [rising, partial curve]
CCOc1ccccc1NC(=O)CSc1nc2ccccc2c(=O)n1CC1CCCO1 (stereo unspecified)	-6.25		1.03 µM [rising, single point]
CCS(=O)(=O)c1ccc(-c2cccc(NC(=O)COc3ccc(Cl)cc3)c2)nn1	-2.75		0.731 µM [rising, partial curve]
CC1CCN(C(=O)Cn2c(=O)n(CCc3ccccc3)c(=O)c3ccccc32)CC1	10.4		0.184 µM [rising, full curve]
N#Cc1cc([N+](=O)[O-])ccc1NCC1CCCO1 (stereo unspecified)	27		
COc1ccc(C(=O)NCCCN2CCCC2=O)cc1	12.2		29.1 µM [falling, single point]
Cc1cc(C)c(C)c(S(=O)(=O)NCc2ccncc2)c1C	-20		
CCc1nnc(NC(=O)CSc2sc3c(O)cc(=O)[nH]c3c2C#N)s1	24.3		29.1 µM [rising, single point]

Retrieved by compound from above (2):
Structure (SMILES)	cell number change [%]	AC50 [1]	AC50 [2]
CCOC(=O)c1ccc(S(=O)(=O)NNS(=O)(=O)c2ccc(C)cc2)cc1	22		
CCOc1ccccc1NC(=O)CSc1nc2ccccc2c(=O)n1CC1CCCO1 (stereo unspecified)	-6.25		1.03 µM [rising, single point]

Going on with the list.

Structure (SMILES)	cell number change [%]	AC50 [1]	AC50 [2]
CCOC(=O)N1CCN(C(=O)COC(=O)c2ccc(O)cc2O)CC1	-89.9	3.66 µM [falling, partial curve, poor fit]	
Cc1cc(C)n2c(SC(C)C(=O)NC3(C#N)CCCCC3)nnc2n1 (stereo unspecified)	1.25		10.3 µM [rising, partial curve]
COc1cccc(NC(=O)CN(C)C(=O)c2cccc(S(=O)(=O)Nc3ccccc3OC)c2)c1	0.311		8.2 µM [rising, partial curve]
C/C(CC(O)(/C=N/O)c1ccccc1)=N\O (stereo unspecified)			4.11 µM [falling, single point]
Cc1c(NC(=O)Cn2cc([N+](=O)[O-])cn2)c(=O)n(-c2ccccc2)n1C	18.9		29.1 µM [rising, single point]
O=C(C1CCCN1S(=O)(=O)c1cccc2nsnc12)N1CCCCCC1 (stereo unspecified)			29.1 µM [rising, single point]
CCNCC(=O)Nc1c(C)cccc1C			29.1 µM [rising, single point]
C[C@@H]1NC(=O)[C@H](CC(N)=O)NC(=O)c2cc([N+](=O)[O-])cc(I)c2OCC[C@@H](C(=O)NC(CC(=O)O)C(N)=O)NC1=O (stereo partly specified) (NA[hSer(Ph(2-I,4-NO2,6-CO))][ξD]-NH2; lactam N-3)	46.1	18.4 µM [rising, single point]	23.1 µM [rising, single point]
CC(NC(=O)/C(C#N)=C1\N=C(NC(=O)c2cccs2)c2ccccc21)c1ccccc1 (stereo unspecified)			0.00517 µM [falling, full curve, poor fit]
CSCC[C@H](NC(=O)[C@H](Cc1ccccc1)n1c(=O)[nH]c2ccccc2c1=O)C(=O)NCC1CCC(C(=O)O)CC1 (stereo partly specified)	-6.15		
CC(C)NC(=S)NN=C1c2ccccc2-c2ccccc21	21.2		2.06 µM [rising, full curve]
CCOc1ccc(C(=O)Nc2ccc(S(=O)(=O)Nc3cc(C)on3)cc2)cc1	-3.36		
Cn1c(=O)[nH]c(=O)c2c1nc(Br)n2CCCc1ccccc1	2.78		0.231 µM [rising, full curve, poor fit]
O=C(NCc1ccc(F)cc1)C1CCN(S(=O)(=O)N2CCCC2)CC1	21.4		2.91 µM [rising, full curve, poor fit]
CC(C)CNC(=O)c1ccccc1Oc1ccccc1	55.8	20.6 µM [rising, single point]	20.6 µM [rising, partial curve]
Nc1[nH]c(N=NC(=O)c2ccccc2)c2ccccc12	27.3		1.3 µM [rising, partial curve]
